These are yes or no findings as the source states them, for the method shown. In cells and extracts the contact can be indirect. Some results given as binding are weak or reduced against the parent protein; the word gives no strength.
Target: Glia maturation factor-γ (GMFγ) (human (endogenous in HASMC)) (UniProt O60234)
Assay: co-IP

Sequences of proteins named here, by UniProt entry; tags and fusion partners are left off.
UniProt O60234, whole entry: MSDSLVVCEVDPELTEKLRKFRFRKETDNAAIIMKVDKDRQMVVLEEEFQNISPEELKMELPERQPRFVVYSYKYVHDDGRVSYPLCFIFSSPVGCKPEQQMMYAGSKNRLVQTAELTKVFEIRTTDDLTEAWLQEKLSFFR
UniProt O00401, whole entry: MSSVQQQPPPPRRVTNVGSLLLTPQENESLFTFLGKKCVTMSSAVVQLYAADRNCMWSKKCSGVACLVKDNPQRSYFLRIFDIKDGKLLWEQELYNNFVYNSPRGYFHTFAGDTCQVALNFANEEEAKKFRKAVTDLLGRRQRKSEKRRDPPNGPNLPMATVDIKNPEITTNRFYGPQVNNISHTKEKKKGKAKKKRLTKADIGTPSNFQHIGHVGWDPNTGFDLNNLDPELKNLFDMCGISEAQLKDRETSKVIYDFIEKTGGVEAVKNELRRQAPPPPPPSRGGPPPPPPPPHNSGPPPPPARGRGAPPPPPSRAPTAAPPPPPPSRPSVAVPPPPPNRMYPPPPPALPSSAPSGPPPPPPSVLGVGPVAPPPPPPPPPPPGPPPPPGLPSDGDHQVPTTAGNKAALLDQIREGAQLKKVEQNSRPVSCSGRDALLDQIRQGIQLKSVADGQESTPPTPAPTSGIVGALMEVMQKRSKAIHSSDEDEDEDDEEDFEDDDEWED

## Neural Wiskott-Aldrich syndrome protein phosphorylated at tyrosine 256, N-WASP (pY256) (from UniProt O00401 1-505)
  binding: binds

From paper doi:10.1101/248914
